Measurements: the supplement of paper PMC12823440, “Inhibitors supercharge kinase turnover through native proteolytic circuits” (Nature, 2025)
Structures can show the parent of a compound that is named as a salt. The list shows a part of the results. Hit calls seldom repeat between salt and free forms of one compound.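 In K562 cells expressing nanoluciferase-fused kinases, luminescence was recorded at 4 h intervals between 2 and 18 h, normalized as percent of control with DMSO at 100% and a positive control at 0%. A significant (2 sigma) signal drop marks a time point as decreased. The authors' rule for a hit is not shown and takes in more than the number of time points.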

Sequences of proteins named here, by UniProt entry; tags and fusion partners are left off. A change or cut given only in a name is not applied to a line headed by its entry.
UniProt P50613: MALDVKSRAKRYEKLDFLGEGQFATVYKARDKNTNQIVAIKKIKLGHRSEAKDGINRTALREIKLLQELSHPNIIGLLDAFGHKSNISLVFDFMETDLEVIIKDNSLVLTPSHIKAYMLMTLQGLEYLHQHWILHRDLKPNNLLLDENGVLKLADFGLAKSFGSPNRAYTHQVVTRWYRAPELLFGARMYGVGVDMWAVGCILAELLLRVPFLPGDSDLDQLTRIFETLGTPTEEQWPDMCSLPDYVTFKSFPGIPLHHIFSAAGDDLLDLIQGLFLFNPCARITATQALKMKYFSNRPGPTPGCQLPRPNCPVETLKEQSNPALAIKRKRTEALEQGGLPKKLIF
UniProt P50750, whole entry: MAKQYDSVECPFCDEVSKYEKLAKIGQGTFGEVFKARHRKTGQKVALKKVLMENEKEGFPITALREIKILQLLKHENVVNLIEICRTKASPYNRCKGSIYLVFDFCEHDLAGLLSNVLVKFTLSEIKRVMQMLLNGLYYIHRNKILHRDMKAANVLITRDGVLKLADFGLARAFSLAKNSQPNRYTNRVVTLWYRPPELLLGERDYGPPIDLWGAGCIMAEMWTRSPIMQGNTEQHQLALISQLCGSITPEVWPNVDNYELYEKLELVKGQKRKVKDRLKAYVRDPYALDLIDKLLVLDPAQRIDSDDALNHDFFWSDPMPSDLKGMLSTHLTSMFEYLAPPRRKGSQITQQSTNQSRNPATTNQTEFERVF
UniProt P07333, whole entry: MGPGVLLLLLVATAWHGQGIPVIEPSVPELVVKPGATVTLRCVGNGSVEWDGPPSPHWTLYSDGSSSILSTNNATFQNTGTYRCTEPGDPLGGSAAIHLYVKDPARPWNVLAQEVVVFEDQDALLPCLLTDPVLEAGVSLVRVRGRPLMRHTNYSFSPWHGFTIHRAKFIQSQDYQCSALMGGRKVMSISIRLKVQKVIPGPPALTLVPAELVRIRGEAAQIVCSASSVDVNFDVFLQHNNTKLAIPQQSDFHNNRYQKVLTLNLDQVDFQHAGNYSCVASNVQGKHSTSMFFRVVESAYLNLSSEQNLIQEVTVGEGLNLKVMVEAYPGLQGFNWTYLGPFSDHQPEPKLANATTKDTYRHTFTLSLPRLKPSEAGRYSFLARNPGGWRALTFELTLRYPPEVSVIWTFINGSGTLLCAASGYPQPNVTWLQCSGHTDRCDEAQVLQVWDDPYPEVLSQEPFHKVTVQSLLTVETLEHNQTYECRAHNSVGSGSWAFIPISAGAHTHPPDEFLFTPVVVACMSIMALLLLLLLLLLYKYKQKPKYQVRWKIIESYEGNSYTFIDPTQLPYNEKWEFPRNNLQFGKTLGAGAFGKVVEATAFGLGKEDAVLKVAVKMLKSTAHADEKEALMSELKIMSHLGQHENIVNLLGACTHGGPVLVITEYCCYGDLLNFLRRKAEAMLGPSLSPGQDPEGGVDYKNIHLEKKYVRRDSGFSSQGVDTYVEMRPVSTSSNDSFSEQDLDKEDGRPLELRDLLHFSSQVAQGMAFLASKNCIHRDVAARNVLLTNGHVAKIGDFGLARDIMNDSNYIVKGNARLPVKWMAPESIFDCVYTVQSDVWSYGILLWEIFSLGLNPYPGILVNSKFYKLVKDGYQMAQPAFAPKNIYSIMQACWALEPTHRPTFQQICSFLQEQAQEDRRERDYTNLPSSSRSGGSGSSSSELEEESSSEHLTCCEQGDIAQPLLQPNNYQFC
UniProt P41240: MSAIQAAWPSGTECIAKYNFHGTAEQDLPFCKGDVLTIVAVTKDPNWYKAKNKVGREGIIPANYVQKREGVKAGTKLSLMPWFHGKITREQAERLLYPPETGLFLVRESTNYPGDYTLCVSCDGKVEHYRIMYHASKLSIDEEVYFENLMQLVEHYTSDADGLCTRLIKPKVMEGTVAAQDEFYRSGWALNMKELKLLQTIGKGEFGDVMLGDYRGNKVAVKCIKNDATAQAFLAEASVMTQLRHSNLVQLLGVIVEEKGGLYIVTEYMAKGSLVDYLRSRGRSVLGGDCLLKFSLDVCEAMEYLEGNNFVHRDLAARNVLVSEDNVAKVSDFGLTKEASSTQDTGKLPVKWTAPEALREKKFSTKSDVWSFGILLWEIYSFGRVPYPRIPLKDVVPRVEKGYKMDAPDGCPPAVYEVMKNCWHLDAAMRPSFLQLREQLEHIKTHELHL
UniProt Q9Y463, whole entry, looked up: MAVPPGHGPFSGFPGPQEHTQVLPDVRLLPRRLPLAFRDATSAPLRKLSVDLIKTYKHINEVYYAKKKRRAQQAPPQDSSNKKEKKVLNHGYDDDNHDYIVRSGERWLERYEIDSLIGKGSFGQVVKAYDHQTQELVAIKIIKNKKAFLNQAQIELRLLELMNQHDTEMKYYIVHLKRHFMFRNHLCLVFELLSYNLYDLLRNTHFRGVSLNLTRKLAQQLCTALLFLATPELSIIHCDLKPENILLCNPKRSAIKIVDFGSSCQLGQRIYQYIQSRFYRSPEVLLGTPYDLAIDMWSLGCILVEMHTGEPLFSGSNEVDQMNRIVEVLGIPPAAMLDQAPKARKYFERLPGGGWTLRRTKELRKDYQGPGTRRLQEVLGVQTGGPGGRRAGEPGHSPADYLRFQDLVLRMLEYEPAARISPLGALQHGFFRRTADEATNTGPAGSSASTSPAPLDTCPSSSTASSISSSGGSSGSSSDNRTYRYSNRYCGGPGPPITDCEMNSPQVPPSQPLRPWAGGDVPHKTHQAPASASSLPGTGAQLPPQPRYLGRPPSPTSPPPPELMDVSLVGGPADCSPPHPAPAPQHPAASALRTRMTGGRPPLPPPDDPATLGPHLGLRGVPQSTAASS
UniProt P29317, whole entry: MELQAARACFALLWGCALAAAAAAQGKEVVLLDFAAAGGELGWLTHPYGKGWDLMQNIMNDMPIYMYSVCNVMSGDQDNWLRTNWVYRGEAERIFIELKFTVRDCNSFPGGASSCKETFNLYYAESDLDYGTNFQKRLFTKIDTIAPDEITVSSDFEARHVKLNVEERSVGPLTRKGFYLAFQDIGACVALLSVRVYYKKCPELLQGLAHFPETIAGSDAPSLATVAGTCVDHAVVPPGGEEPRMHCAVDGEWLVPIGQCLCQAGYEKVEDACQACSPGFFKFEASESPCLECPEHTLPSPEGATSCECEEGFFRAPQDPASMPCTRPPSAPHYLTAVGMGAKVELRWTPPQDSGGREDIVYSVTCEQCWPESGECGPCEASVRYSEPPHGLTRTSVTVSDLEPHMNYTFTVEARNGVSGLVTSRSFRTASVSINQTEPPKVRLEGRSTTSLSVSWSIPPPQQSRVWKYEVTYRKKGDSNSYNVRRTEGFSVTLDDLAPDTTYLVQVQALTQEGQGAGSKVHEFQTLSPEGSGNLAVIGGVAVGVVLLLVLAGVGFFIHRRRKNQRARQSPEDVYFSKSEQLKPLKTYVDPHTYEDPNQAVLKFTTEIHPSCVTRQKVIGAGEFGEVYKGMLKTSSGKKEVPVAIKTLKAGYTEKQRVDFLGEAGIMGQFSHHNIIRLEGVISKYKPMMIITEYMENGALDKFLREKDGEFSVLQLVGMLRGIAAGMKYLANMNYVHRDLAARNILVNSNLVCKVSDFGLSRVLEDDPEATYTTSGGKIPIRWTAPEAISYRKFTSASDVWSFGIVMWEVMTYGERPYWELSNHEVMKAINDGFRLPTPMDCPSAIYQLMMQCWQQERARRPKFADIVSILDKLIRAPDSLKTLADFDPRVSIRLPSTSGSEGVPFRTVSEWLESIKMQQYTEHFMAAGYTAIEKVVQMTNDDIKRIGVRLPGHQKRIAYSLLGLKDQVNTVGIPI
UniProt P21860, whole entry: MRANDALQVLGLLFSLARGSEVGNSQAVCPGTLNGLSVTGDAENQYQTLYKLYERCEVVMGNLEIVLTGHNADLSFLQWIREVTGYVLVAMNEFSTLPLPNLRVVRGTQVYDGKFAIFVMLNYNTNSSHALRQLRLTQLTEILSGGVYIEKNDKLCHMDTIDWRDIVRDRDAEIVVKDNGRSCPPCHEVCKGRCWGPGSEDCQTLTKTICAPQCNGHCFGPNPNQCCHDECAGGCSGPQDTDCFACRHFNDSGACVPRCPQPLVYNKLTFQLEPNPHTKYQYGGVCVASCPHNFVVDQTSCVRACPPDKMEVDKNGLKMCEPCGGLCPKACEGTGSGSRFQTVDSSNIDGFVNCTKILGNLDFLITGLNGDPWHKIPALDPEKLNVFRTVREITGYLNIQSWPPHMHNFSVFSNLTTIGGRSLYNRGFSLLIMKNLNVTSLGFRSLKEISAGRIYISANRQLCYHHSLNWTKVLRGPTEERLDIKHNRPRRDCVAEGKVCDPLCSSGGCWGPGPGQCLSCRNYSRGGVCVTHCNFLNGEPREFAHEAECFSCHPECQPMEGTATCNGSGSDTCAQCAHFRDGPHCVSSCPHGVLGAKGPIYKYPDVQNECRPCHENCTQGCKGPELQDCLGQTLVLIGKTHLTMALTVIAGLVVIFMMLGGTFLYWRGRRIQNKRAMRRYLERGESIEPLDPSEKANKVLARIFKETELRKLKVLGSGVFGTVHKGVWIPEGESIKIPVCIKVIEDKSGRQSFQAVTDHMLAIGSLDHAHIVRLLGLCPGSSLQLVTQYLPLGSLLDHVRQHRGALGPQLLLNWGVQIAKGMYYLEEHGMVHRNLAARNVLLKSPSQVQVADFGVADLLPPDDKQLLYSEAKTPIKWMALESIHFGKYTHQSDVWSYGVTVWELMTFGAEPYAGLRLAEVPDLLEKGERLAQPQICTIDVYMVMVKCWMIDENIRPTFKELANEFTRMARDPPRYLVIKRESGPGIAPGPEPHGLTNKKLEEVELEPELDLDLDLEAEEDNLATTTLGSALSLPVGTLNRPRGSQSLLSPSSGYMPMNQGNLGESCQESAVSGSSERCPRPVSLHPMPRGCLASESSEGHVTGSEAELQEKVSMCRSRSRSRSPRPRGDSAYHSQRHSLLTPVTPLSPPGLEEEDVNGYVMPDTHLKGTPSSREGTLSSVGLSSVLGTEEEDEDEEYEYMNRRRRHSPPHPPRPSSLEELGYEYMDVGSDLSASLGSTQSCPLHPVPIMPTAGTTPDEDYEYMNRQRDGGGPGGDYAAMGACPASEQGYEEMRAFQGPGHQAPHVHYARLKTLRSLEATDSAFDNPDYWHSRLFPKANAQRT
UniProt Q15303, whole entry R711C: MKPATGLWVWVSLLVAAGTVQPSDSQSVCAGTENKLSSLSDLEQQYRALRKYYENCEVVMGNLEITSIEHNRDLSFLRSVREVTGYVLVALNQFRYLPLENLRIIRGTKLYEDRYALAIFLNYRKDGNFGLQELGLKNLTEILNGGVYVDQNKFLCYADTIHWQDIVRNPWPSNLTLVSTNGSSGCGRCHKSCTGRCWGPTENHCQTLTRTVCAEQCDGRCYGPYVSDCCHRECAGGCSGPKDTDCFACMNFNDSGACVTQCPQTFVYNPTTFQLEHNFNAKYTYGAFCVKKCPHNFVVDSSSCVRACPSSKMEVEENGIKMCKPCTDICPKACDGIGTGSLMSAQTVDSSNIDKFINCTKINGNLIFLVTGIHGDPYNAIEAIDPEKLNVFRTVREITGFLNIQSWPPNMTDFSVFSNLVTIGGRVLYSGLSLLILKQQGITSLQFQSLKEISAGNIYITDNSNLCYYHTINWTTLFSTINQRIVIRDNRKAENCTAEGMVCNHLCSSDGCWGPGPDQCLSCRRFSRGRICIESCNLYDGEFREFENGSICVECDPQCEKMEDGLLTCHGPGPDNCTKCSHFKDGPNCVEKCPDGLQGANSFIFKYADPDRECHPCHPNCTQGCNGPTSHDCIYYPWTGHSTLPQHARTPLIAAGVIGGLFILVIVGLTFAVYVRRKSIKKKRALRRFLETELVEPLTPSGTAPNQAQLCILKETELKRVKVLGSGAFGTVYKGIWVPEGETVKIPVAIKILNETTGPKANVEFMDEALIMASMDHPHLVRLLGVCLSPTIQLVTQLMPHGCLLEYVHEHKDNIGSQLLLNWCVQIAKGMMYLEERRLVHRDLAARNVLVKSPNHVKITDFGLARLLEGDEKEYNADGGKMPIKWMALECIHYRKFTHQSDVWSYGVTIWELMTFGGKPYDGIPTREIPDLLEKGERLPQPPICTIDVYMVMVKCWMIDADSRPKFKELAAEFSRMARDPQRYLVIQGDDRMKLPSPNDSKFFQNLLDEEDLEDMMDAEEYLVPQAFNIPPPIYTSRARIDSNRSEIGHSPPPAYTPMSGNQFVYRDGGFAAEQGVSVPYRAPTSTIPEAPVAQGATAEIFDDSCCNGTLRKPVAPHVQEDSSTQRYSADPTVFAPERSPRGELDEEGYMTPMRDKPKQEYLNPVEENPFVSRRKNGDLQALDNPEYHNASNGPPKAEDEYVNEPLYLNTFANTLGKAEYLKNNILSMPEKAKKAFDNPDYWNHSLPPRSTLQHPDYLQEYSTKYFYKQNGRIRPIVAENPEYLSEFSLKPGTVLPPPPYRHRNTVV

Legend:
Assay in all cases: kinase-Nluc reporter destabilization hit call (1 = scored as downregulated) (binary); higher = compound decreases kinase abundance
Details in all cases: K562; 2-18 h
CDK7 = CDK7 (UniProt P50613)
CDK9 = CDK9 (UniProt P50750)
CHEK2 = CHEK2 (UniProt O96017)
CSF1R = CSF1R (UniProt P07333)
CSK = CSK (UniProt P41240)
CSNK1A1 = CSNK1A1 (UniProt P48729)
CSNK1D = CSNK1D (UniProt P48730)
DDR1 = DDR1 (UniProt Q08345)
DYRK1B = DYRK1B (UniProt Q9Y463)
DYRK2 = DYRK2 (UniProt Q92630)
EGFR = EGFR (UniProt P00533)
EGFR_G719S = EGFR_G719S (UniProt P00533)
EGFR_G719S_T790M = EGFR_G719S_T790M (UniProt P00533)
EGFR_L718V = EGFR_L718V (UniProt P00533)
EGFR_L858R = EGFR_L858R (UniProt P00533)
EGFR_L861Q = EGFR_L861Q (UniProt P00533)
EGFR_T790M = EGFR_T790M (UniProt P00533)
EPHA2 = EPHA2 (UniProt P29317)
ERBB3 = ERBB3 (UniProt P21860)
[1] = biological target: ERBB4_R711C (clone: ERBB4_mut) (UniProt Q15303)

Measured: kinase-Nluc reporter destabilization hit call

CN(C)Cc1cccc(N=C(c2ccccc2)c2c(O)[nH]c3cc(C(=O)N(C)C)ccc23)c1 (10 µM)
inactive: CDK7 = 0 | CDK9 = 0 | CHEK2 = 0 | CSF1R 0 | CSK 0 | CSNK1A1 = 0 | CSNK1D 0 | DDR1 = 0 | DYRK1B 0 | DYRK2 = 0 | EGFR 0 | EGFR_G719S 0 | EGFR_G719S_T790M 0 | EGFR_L718V 0 | EGFR_L858R 0 | EGFR_L861Q 0 | EGFR_T790M 0 | EPHA2 = 0 | ERBB3 = 0 | [1] 0

Cn1ncc(Cl)c1-c1cc(C(=O)N[C@H](CN)Cc2ccc(F)c(F)c2)sc1Cl (10 µM)
inactive: CDK7 = 0 | CDK9 = 0 | CHEK2 = 0 | CSF1R 0 | CSK 0 | CSNK1A1 = 0 | CSNK1D 0 | DDR1 = 0 | DYRK1B 0 | DYRK2 = 0 | EGFR 0 | EGFR_G719S 0 | EGFR_G719S_T790M 0 | EGFR_L718V 0 | EGFR_L858R 0 | EGFR_L861Q 0 | EGFR_T790M 0 | EPHA2 = 0 | ERBB3 = 0 | [1] 0

C=CC(=O)N1CCC(Oc2cc3c(Nc4ccc(Cl)c(Cl)c4F)ncnc3cc2OC)CC1 [Poziotinib] (2.5 µM)
inactive: CDK7 = 0 | CDK9 = 0 | CHEK2 = 0 | CSF1R 0 | CSK 0 | CSNK1A1 = 0 | CSNK1D 0 | DDR1 = 0 | DYRK1B 0 | DYRK2 = 0 | EGFR 0 | EGFR_G719S 0 | EGFR_G719S_T790M 0 | EGFR_L718V 0 | EGFR_L858R 0 | EGFR_L861Q 0 | EGFR_T790M 0 | EPHA2 = 0 | ERBB3 = 0 | [1] 0

O=C1NC(=O)C(c2cn(-c3ccccc3)nc2-c2ccc(F)cc2)N1 (stereo not given) (10 µM)
inactive: CDK7 = 0 | CDK9 = 0 | CHEK2 = 0 | CSF1R 0 | CSK 0 | CSNK1A1 = 0 | CSNK1D 0 | DDR1 = 0 | DYRK1B 0 | DYRK2 = 0 | EGFR 0 | EGFR_G719S 0 | EGFR_G719S_T790M 0 | EGFR_L718V 0 | EGFR_L858R 0 | EGFR_L861Q 0 | EGFR_T790M 0 | EPHA2 = 0 | ERBB3 = 0 | [1] 0

Cc1cc(Nc2nc(N[C@@H](C)c3ncc(F)cn3)ncc2Cl)[nH]n1 (10 µM)
inactive: CDK7 = 0 | CDK9 = 0 | CHEK2 = 0 | CSF1R 0 | CSK 0 | CSNK1A1 = 0 | CSNK1D 0 | DDR1 = 0 | DYRK1B 0 | DYRK2 = 0 | EGFR 0 | EGFR_G719S 0 | EGFR_G719S_T790M 0 | EGFR_L718V 0 | EGFR_L858R 0 | EGFR_L861Q 0 | EGFR_T790M 0 | EPHA2 = 0 | ERBB3 = 0 | [1] 0

O=C(c1ccc(Nc2nccc(-c3cc4ccccc4s3)n2)cc1)N1CCC(N2CCCC2)CC1 (2.5 µM)
inactive: CDK7 = 0 | CDK9 = 0 | CHEK2 = 0 | CSF1R 0 | CSK 0 | CSNK1A1 = 0 | CSNK1D 0 | DDR1 = 0 | DYRK1B 0 | DYRK2 = 0 | EGFR 0 | EGFR_G719S 0 | EGFR_G719S_T790M 0 | EGFR_L718V 0 | EGFR_L858R 0 | EGFR_L861Q 0 | EGFR_T790M 0 | EPHA2 = 0 | ERBB3 = 0 | [1] 0

COC(=O)N[C@@H](C)CNc1nccc(-c2cn(C(C)C)nc2-c2cc(Cl)cc(NS(C)(=O)=O)c2F)n1 [Encorafenib] (10 µM)
inactive: CDK7 = 0 | CDK9 = 0 | CHEK2 = 0 | CSF1R 0 | CSK 0 | CSNK1A1 = 0 | CSNK1D 0 | DDR1 = 0 | DYRK1B 0 | DYRK2 = 0 | EGFR 0 | EGFR_G719S 0 | EGFR_G719S_T790M 0 | EGFR_L718V 0 | EGFR_L858R 0 | EGFR_L861Q 0 | EGFR_T790M 0 | EPHA2 = 0 | ERBB3 = 0 | [1] 0

O=S(=O)(c1cccc2cnccc12)N1CCNCC1 (10 µM)
inactive: CDK7 = 0 | CDK9 = 0 | CHEK2 = 0 | CSF1R 0 | CSK 0 | CSNK1A1 = 0 | CSNK1D 0 | DDR1 = 0 | DYRK1B 0 | DYRK2 = 0 | EGFR 0 | EGFR_G719S 0 | EGFR_G719S_T790M 0 | EGFR_L718V 0 | EGFR_L858R 0 | EGFR_L861Q 0 | EGFR_T790M 0 | EPHA2 = 0 | ERBB3 = 0 | [1] 0

O=C(O)c1ccc(-c2c[nH]c3ncc(-c4ccccc4)cc23)cc1C1CCCC1 (2.5 µM)
inactive: CDK7 = 0 | CDK9 = 0 | CHEK2 = 0 | CSF1R 0 | CSK 0 | CSNK1A1 = 0 | CSNK1D 0 | DDR1 = 0 | DYRK1B 0 | DYRK2 = 0 | EGFR 0 | EGFR_G719S 0 | EGFR_G719S_T790M 0 | EGFR_L718V 0 | EGFR_L858R 0 | EGFR_L861Q 0 | EGFR_T790M 0 | EPHA2 = 0 | ERBB3 = 0 | [1] 0

Nc1ncc(-c2ccc(C(=O)N3CCNCC3)cc2)nc1-c1ccc(C(F)(F)F)cc1 (10 µM)
inactive: CDK7 = 0 | CDK9 = 0 | CHEK2 = 0 | CSF1R 0 | CSK 0 | CSNK1A1 = 0 | CSNK1D 0 | DDR1 = 0 | DYRK1B 0 | DYRK2 = 0 | EGFR 0 | EGFR_G719S 0 | EGFR_G719S_T790M 0 | EGFR_L718V 0 | EGFR_L858R 0 | EGFR_L861Q 0 | EGFR_T790M 0 | EPHA2 = 0 | ERBB3 = 0 | [1] 0

C[C@H]1Cc2ccccc2N1C(=O)Cc1nc(N2CCOCC2)cc(=O)[nH]1 (2.5 µM)
inactive: CDK7 = 0 | CDK9 = 0 | CHEK2 = 0 | CSF1R 0 | CSK 0 | CSNK1A1 = 0 | CSNK1D 0 | DDR1 = 0 | DYRK1B 0 | DYRK2 = 0 | EGFR 0 | EGFR_G719S 0 | EGFR_G719S_T790M 0 | EGFR_L718V 0 | EGFR_L858R 0 | EGFR_L861Q 0 | EGFR_T790M 0 | EPHA2 = 0 | ERBB3 = 0 | [1] 0

COC(=O)[C@@]1(C)CC[C@]2(C(=O)O)CC[C@]3(C)C(=CC[C@@H]4[C@@]5(C)C[C@H](O)[C@H](O[C@@H]6OC[C@@H](O[C@@H]7O[C@H](CO)[C@@H](O)[C@H](O)[C@H]7O)[C@H](O)[C@H]6O)[C@@](C)(CO)[C@@H]5CC[C@]43C)[C@@H]2C1 [Esculentoside A] (10 µM)
inactive: CDK7 = 0 | CDK9 = 0 | CHEK2 = 0 | CSF1R 0 | CSK 0 | CSNK1A1 = 0 | CSNK1D 0 | DDR1 = 0 | DYRK1B 0 | DYRK2 = 0 | EGFR 0 | EGFR_G719S 0 | EGFR_G719S_T790M 0 | EGFR_L718V 0 | EGFR_L858R 0 | EGFR_L861Q 0 | EGFR_T790M 0 | EPHA2 = 0 | ERBB3 = 0 | [1] 0

O=C(Nc1ccc(Cl)cc1)C1CCCN(C(=O)c2cccc(-c3ccco3)c2)C1 (stereo not given) (2.5 µM)
inactive: CDK7 = 0 | CDK9 = 0 | CHEK2 = 0 | CSF1R 0 | CSK 0 | CSNK1A1 = 0 | CSNK1D 0 | DDR1 = 0 | DYRK1B 0 | DYRK2 = 0 | EGFR 0 | EGFR_G719S 0 | EGFR_G719S_T790M 0 | EGFR_L718V 0 | EGFR_L858R 0 | EGFR_L861Q 0 | EGFR_T790M 0 | EPHA2 = 0 | ERBB3 = 0 | [1] 0

COc1cc2ncnc(Nc3ccc(NC(=O)c4ccccc4)cc3)c2cc1OC [Aurora kinase inhibitor-2] (2.5 µM)
inactive: CDK7 = 0 | CDK9 = 0 | CHEK2 = 0 | CSF1R 0 | CSK 0 | CSNK1A1 = 0 | CSNK1D 0 | DDR1 = 0 | DYRK1B 0 | DYRK2 = 0 | EGFR 0 | EGFR_G719S 0 | EGFR_G719S_T790M 0 | EGFR_L718V 0 | EGFR_L858R 0 | EGFR_L861Q 0 | EGFR_T790M 0 | EPHA2 = 0 | ERBB3 = 0 | [1] 0

Fc1c(Br)cccc1Nc1ncnc2cc3c(cc12)OCCO3 (2.5 µM)
inactive: CDK7 = 0 | CDK9 = 0 | CHEK2 = 0 | CSF1R 0 | CSK 0 | CSNK1A1 = 0 | CSNK1D 0 | DDR1 = 0 | DYRK1B 0 | DYRK2 = 0 | EGFR 0 | EGFR_G719S 0 | EGFR_G719S_T790M 0 | EGFR_L718V 0 | EGFR_L858R 0 | EGFR_L861Q 0 | EGFR_T790M 0 | EPHA2 = 0 | ERBB3 = 0 | [1] 0

C=CC(=O)N1CCC[C@@H](n2nc(C(=O)Nc3ccc(CC(=O)N(C)C)c(C)c3C)c3c(N)ncnc32)C1 (10 µM)
inactive: CDK7 = 0 | CDK9 = 0 | CHEK2 = 0 | CSF1R 0 | CSK 0 | CSNK1A1 = 0 | CSNK1D 0 | DDR1 = 0 | DYRK1B 0 | DYRK2 = 0 | EGFR 0 | EGFR_G719S 0 | EGFR_G719S_T790M 0 | EGFR_L718V 0 | EGFR_L858R 0 | EGFR_L861Q 0 | EGFR_T790M 0 | EPHA2 = 0 | ERBB3 = 0 | [1] 0

C[C@H]1[C@H](OC(=O)CCC(=O)O)O[C@@H]2O[C@@]3(C)CC[C@H]4[C@H](C)CC[C@@H]1[C@@]24OO3 [Artesunate] (2.5 µM)
inactive: CDK7 = 0 | CDK9 = 0 | CHEK2 = 0 | CSF1R 0 | CSK 0 | CSNK1A1 = 0 | CSNK1D 0 | DDR1 = 0 | DYRK1B 0 | DYRK2 = 0 | EGFR 0 | EGFR_G719S 0 | EGFR_G719S_T790M 0 | EGFR_L718V 0 | EGFR_L858R 0 | EGFR_L861Q 0 | EGFR_T790M 0 | EPHA2 = 0 | ERBB3 = 0 | [1] 0

CCCCNC(=N)NC(=N)N [Buformin (hydrochloride)] (2.5 µM)
inactive: CDK7 = 0 | CDK9 = 0 | CHEK2 = 0 | CSF1R 0 | CSK 0 | CSNK1A1 = 0 | CSNK1D 0 | DDR1 = 0 | DYRK1B 0 | DYRK2 = 0 | EGFR 0 | EGFR_G719S 0 | EGFR_G719S_T790M 0 | EGFR_L718V 0 | EGFR_L858R 0 | EGFR_L861Q 0 | EGFR_T790M 0 | EPHA2 = 0 | ERBB3 = 0 | [1] 0
